PubChem BioAssay AID686938 – Drosophila RNAi Screening Center, 2013

- Test: 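Knock-downs reducing store-operated calcium influx in Drosophila cells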 (primary screen)
- Cells: Drosophila S2R+ cells
- Reagents: long dsRNA against Drosophila genes, about 0.25 µg dsRNA per well, roughly 10,000 cells
- Time to read-out: 5 days of knock-down before the calcium assay
- Conditions: thapsigargin (SERCA pump blocker) to empty calcium stores; entry signal taken 4 min after adding it
- Read-out: 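Duplicate raw fluo-4 intensities per well from a plate reader, at rest and four minutes after thapsigargin emptied calcium stores; entry-to-rest ratio filled for only some wells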
- Reading the numbers: calcium entry signal: higher = stronger calcium signal after store depletion; resting calcium signal: higher = higher resting calcium signal
- Units: calcium entry signal in fluorescence units; resting calcium signal in fluorescence units
- Active means: 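Hit if the duplicate-averaged plate z-score for entry over resting signal is under −3; wells with weak total dye signal (Fmax z < −2) or more than 5 off-targets removed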
- Meaning of the calls: active = strongly reduced calcium entry; inactive = no strong reduction
In all, the deposit lists about 23,000 reagents; shown is a random part of those with a known target gene and a result. Over the whole deposit, 75 (0.33%) got an active call. 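Raw plate signals without normalisation; calls rest on plate z-scores that were not deposited; ratio present for only 364 wells.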 Reagents against one gene are numbered here. Names joined by + are all predicted targets of the reagent. Not stated in the record: the dose of the treatment.

corolla → calcium entry signal, replicate 1: 4.31e7; calcium entry signal, replicate 2: 4.45e7; resting calcium signal, replicate 1: 2.02e7; resting calcium signal, replicate 2: 2.03e7; call: inactive
Gem4b + Gem4c → calcium entry signal, replicate 1: 4.38e7; calcium entry signal, replicate 2: 3.48e7; resting calcium signal, replicate 1: 2.18e7; resting calcium signal, replicate 2: 1.41e7; call: inactive
VAChT (Vesicular acetylcholine transporter) #1 → calcium entry signal, replicate 1: 3.62e7; calcium entry signal, replicate 2: 2.95e7; resting calcium signal, replicate 1: 2.12e7; resting calcium signal, replicate 2: 1.56e7; call: inactive
VAChT (Vesicular acetylcholine transporter) #2 → calcium entry signal, replicate 1: 3.08e7; calcium entry signal, replicate 2: 2.77e7; resting calcium signal, replicate 1: 1.46e7; resting calcium signal, replicate 2: 1.21e7; call: inactive
Fak (Focal adhesion kinase) → calcium entry signal, replicate 1: 4.99e7; calcium entry signal, replicate 2: 4.33e7; resting calcium signal, replicate 1: 1.90e7; resting calcium signal, replicate 2: 2.00e7; call: inactive
CG10053 → calcium entry signal, replicate 1: 3.98e7; calcium entry signal, replicate 2: 4.68e7; resting calcium signal, replicate 1: 1.70e7; resting calcium signal, replicate 2: 2.08e7; call: inactive
CG31661 → calcium entry signal, replicate 1: 4.08e7; calcium entry signal, replicate 2: 3.39e7; resting calcium signal, replicate 1: 1.87e7; resting calcium signal, replicate 2: 1.54e7; call: inactive
CycC (Cyclin C) → calcium entry signal, replicate 1: 3.75e7; calcium entry signal, replicate 2: 4.90e7; resting calcium signal, replicate 1: 1.47e7; resting calcium signal, replicate 2: 1.97e7; call: inactive
mRpL21 (mitochondrial ribosomal protein L21) → calcium entry signal, replicate 1: 2.62e7; calcium entry signal, replicate 2: 3.79e7; resting calcium signal, replicate 1: 1.17e7; resting calcium signal, replicate 2: 1.60e7; call: inactive
CG8708 → calcium entry signal, replicate 1: 4.01e7; calcium entry signal, replicate 2: 3.32e7; resting calcium signal, replicate 1: 1.55e7; resting calcium signal, replicate 2: 1.60e7; call: inactive
mon2 (monensin sensitivity 2) → calcium entry signal, replicate 1: 2.80e7; calcium entry signal, replicate 2: 4.09e7; resting calcium signal, replicate 1: 1.45e7; resting calcium signal, replicate 2: 1.87e7; call: inactive
Jwa → calcium entry signal, replicate 1: 4.74e7; resting calcium signal, replicate 1: 2.26e7; call: inactive
Srp9 (Signal recognition particle 9) → calcium entry signal, replicate 1: 3.74e7; calcium entry signal, replicate 2: 4.97e7; resting calcium signal, replicate 1: 1.72e7; resting calcium signal, replicate 2: 2.29e7; call: inactive
CG10510 → calcium entry signal, replicate 1: 4.45e7; calcium entry signal, replicate 2: 4.55e7; resting calcium signal, replicate 1: 1.94e7; resting calcium signal, replicate 2: 2.94e7; call: inactive
inv (invected) → calcium entry signal, replicate 1: 3.85e7; calcium entry signal, replicate 2: 3.07e7; resting calcium signal, replicate 1: 2.00e7; resting calcium signal, replicate 2: 1.43e7; call: inactive
CG5902 → calcium entry signal, replicate 1: 2.23e7; calcium entry signal, replicate 2: 2.66e7; resting calcium signal, replicate 1: 1.14e7; resting calcium signal, replicate 2: 1.15e7; call: inactive
PheRS-m (Phenylalanyl-tRNA synthetase, mitochondrial) → calcium entry signal, replicate 1: 3.78e7; calcium entry signal, replicate 2: 3.60e7; resting calcium signal, replicate 1: 1.61e7; resting calcium signal, replicate 2: 1.71e7; call: inactive
l(2)efl (lethal (2) essential for life) → calcium entry signal, replicate 1: 3.71e7; resting calcium signal, replicate 1: 1.97e7; call: inactive
Ldsdh1 (Lipid droplet subset dehydrogenase 1) → calcium entry signal, replicate 1: 3.18e7; calcium entry signal, replicate 2: 3.69e7; resting calcium signal, replicate 1: 1.46e7; resting calcium signal, replicate 2: 1.68e7; call: inactive
Amy-p (Amylase proximal) → calcium entry signal, replicate 1: 4.75e7; calcium entry signal, replicate 2: 4.36e7; resting calcium signal, replicate 1: 1.97e7; resting calcium signal, replicate 2: 2.07e7; call: inactive
Ppat-Dpck → calcium entry signal, replicate 1: 4.20e7; calcium entry signal, replicate 2: 5.43e7; resting calcium signal, replicate 1: 2.08e7; resting calcium signal, replicate 2: 2.30e7; call: inactive

As entered above:
Result for mon2 (monensin sensitivity 2) under “resting calcium signal, replicate 2”: 1.87e7
Under “calcium entry signal, replicate 2”, VAChT (Vesicular acetylcholine transporter) #1 is entered as 2.95e7
